Laboratory results taken from paper PMC3285215.
Results are given in words; binding and its absence hold for the method and conditions named. Binding can be weak; no strength is given. Blank lines part the entries; values can stand above or below the substance they belong to.

Tests used:
[1] = biological target: CsPABP2, poly(A)-binding protein (two-hybrid fusion) (Citrus sinensis (sweet orange)) (UniProt G9I828); assay: two-hybrid; baits in pOBD (GAL4-BD) and full-length preys in pOAD (GAL4-AD); SC -Trp -Leu -His -Ade with 5 mM 3AT, 5 days at 30°C
[2] = biological target: CsPCBP, poly(C)-binding protein with a KH domain (two-hybrid fusion) (Citrus sinensis (sweet orange)) (UniProt G9I825); assay: as above
[3] = biological target: PthA1 fused to the GAL4-BD domain (Xanthomonas citri); assay: as above
[4] = biological target: PthA3 fused to the GAL4-BD domain (Xanthomonas citri); assay: as above
[5] = biological target: CsPABP1, poly(A)-binding protein (two-hybrid fusion) (Citrus sinensis (sweet orange)) (UniProt G3LUH8); assay: as above
[6] = biological target: CsSMC, structural maintenance of chromosomes domain-containing protein (two-hybrid fusion) (Citrus sinensis (sweet orange)) (UniProt G9I822); assay: as above
[7] = biological target: CsTRAX, translin-associated factor X (two-hybrid fusion) (Citrus sinensis (sweet orange)) (UniProt G9I826); assay: as above
[8] = biological target: GST-CsHMG (Citrus sinensis (sweet orange)) (UniProt G9I829); assay: pull-down; GST or GST fusions immobilized on glutathione resin; about 50 µg of purified 6xHis-tagged protein, 2 h at 4°C; four PBS washes, elution with reduced glutathione; Western blot; both purified
[9] = biological target: GST-CsTRAX (Citrus sinensis (sweet orange)) (UniProt G9I826); assay: as above
[10] = biological target: GST-CsHAP3 (Citrus sinensis (sweet orange)) (UniProt G9I824); assay: as above
[11] = biological target: GST-CsSMC (Citrus sinensis (sweet orange)) (UniProt G9I822); assay: as above
[12] = biological target: CsVIP2, VirE2-interacting protein (two-hybrid fusion) (Citrus sinensis (sweet orange)) (UniProt G9I827); assay: two-hybrid; baits in pOBD (GAL4-BD) and full-length preys in pOAD (GAL4-AD); SC -Trp -Leu -His -Ade with 5 mM 3AT, 5 days at 30°C

- binding [1]: binds
- binding [2]: binds
Substance: CsVIP2, VirE2-interacting protein (two-hybrid fusion) (from UniProt G9I827)

Substance: CsHMG, high-mobility group protein (two-hybrid fusion) (from UniProt G9I829)
- binding [3]: binds
- binding [4]: binds
- binding [1]: binds weakly
- binding [5]: binds weakly

Substance: CsTRAX, translin-associated factor X (two-hybrid fusion) (from UniProt G9I826)
- binding [4]: binds

Substance: CsSMC, structural maintenance of chromosomes domain-containing protein (two-hybrid fusion) (from UniProt G9I822)
- binding [4]: binds

Substance: CsPABP1, poly(A)-binding protein (two-hybrid fusion) (from UniProt G3LUH8)
- binding [6]: binds
- binding [4]: binds
- binding [7]: binds

Substance: CsPCBP, poly(C)-binding protein with a KH domain (two-hybrid fusion) (from UniProt G9I825)
- binding [4]: binds

Substance: 6xHis-PthA1 (from UniProt A0AAI7ZJD3 1-1126)
- binding [8]: binds

Substance: 6xHis-PthA3 (from UniProt A0AAI7ZJD8 1-1096)
- binding [9]: binds
- binding [8]: binds
- binding [10]: binds
- binding [11]: binds

Substance: CsHAP3, homolog of the OsHAP3A transcriptional factor (two-hybrid fusion) (from UniProt G9I824)
- binding [4]: binds

Substance: CsPABP2, poly(A)-binding protein (two-hybrid fusion) (from UniProt G9I828)
- binding [6]: binds
- binding [4]: binds
- binding [12]: binds
